Publication PMC4660199
No constants are given. Whether binding was seen depends on the method and setting.

Biological target: cpSRP43 CD3 (UniProt O22265)
Test: NMR solution structure; solution structure of unliganded CD3, 298 K, 20 mM Na-phosphate (pH 6.5), 150 mM NaCl; set against the helix-swapped crystal form; both purified

- binding: no binding
Substance: cpSRP43 CD3 (from UniProt O22265 316-373) (domain or fragment)
